Patent US20220002384A1
Positions count from the first letter of the chain named. No constants are given. Whether binding was seen depends on the method and setting. Some results given as binding are weak or reduced against the parent protein; the word gives no strength. For some assays here: Tags and fused reporters may be left off the sequences shown.

By UniProt entry, the sequences of proteins in these tests, tags left out. Where a name states a change or a piece, a line headed by the entry shows the natural chain unless it says otherwise. Residues count along the entry.
UniProt Q02223, residues 1-54: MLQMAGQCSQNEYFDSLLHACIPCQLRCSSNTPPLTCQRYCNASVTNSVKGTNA
UniProt P30530, residues 26-894: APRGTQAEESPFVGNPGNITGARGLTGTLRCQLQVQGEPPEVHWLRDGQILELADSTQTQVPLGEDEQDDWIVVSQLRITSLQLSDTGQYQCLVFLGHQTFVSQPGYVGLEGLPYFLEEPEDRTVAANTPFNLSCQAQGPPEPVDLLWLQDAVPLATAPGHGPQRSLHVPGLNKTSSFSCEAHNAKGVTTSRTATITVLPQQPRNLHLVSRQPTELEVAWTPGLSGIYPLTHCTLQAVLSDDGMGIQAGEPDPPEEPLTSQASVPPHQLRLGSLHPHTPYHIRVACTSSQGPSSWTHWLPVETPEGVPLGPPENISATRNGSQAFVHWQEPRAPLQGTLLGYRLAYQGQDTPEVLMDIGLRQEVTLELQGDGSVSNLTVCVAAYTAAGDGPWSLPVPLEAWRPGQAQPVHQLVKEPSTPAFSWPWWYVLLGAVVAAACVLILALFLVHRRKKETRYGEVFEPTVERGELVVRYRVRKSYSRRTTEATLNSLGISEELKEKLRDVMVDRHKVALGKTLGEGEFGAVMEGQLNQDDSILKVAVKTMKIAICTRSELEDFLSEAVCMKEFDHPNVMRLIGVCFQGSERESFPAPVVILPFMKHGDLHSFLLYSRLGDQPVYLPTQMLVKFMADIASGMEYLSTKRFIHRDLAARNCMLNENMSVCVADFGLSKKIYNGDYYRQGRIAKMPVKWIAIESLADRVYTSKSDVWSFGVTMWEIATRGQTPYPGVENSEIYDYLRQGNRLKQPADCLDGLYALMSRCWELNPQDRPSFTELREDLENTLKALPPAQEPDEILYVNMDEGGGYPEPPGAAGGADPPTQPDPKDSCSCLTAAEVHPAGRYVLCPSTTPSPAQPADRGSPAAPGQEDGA

B1: exemplary BCMA-binding FN3 domain (designed binder)
chain: NVSPPRRARVTDATETTITIPWALAGSPVVRFQVDAVPANGQTPIQRTIQPSKRGYTITGLQPGTDYKIYLYTLNGPVVIDAST
B2: AXL #44 (designed binder)
chain: NVSPPRRARVTDATETTITIRWEGRGVIGFQVDAVPANGQTPIQRTIKPDVRSYTITGLQPGTDYKIYLYTLPNIGTGHFSSSPVVIDAST
B3: AXL #53 (designed binder)
chain: NVSPPRRARVTDATETTITISWEGSPSTFIGFQVDAVPANGQTPIQRTIKPDVRSYTITGLQPGTDYKIYLYTLPDFGRGHFTSSPVVIDAST
B4: AXL #54 (designed binder)
chain: B2 chain with N74D, I75F, T77R, S81T
B5: AXL #56 (designed binder)
chain: NVSPPRRARVTDATETTITISWRVSPSTVVGLQVDAVPANGQTPIQRTIKPDVRSYTITGLQPGTDYKIYLYTLNVIGGSAHASSPVVIDAST
B6: AXL #44-CD3 FN3 domain-scFv fusion (protein)
chain: NVSPPRRARVTDATETTITIRWEGRGVIGFQVDAVPANGQTPIQRTIKPDVRSYTITGLQPGTDYKIYLYTLPNIGTGHFSSSPVVIDASTGGGGSELVVTQEPSLTVSPGGTVTLTCRSSTGAVTTSNYANWVQQKPGQAPRGLIGGTNKRAPGTPARFSGSLLGGKAALTLSGVQPEDEAEYYCALWYSNLWVFGGGTKLTVLGGGGSGGGGSGGGGSEVQLLESGGGLVQPGGSLKLSCAASGFTFNTYAMNWVRQAPGKGLEWVARIRSKYNNYATYYADSVKDRFTISRDDSKNTAYLQMNNLKTEDTAVYYCVRHGNFGNSYVSWFAYWGQGTLVTVSSHHHHHH
B7: AXL #54-CD3 FN3 domain-scFv fusion (protein)
chain: B6 chain with N74D, I75F, T77R, S81T
B8: AXL #56-CD3 FN3 domain-scFv fusion (protein)
chain: NVSPPRRARVTDATETTITISWRVSPSTVVGLQVDAVPANGQTPIQRTIKPDVRSYTITGLQPGTDYKIYLYTLNVIGGSAHASSPVVIDASTGGGGSELVVTQEPSLTVSPGGTVTLTCRSSTGAVTTSNYANWVQQKPGQAPRGLIGGTNKRAPGTPARFSGSLLGGKAALTLSGVQPEDEAEYYCALWYSNLWVFGGGTKLTVLGGGGSGGGGSGGGGSEVQLLESGGGLVQPGGSLKLSCAASGFTFNTYAMNWVRQAPGKGLEWVARIRSKYNNYATYYADSVKDRFTISRDDSKNTAYLQMNNLKTEDTAVYYCVRHGNFGNSYVSWFAYWGQGTLVTVSSHHHHHH

Assays:
[1] = biological target: BCMA-Fc Chimera (R&D Systems) (UniProt Q02223); experiment: phage and yeast display selection on BCMA-Fc; Octet BLI on BCMA-Fc on Protein A tips (values not given)
[2] = biological target: AXL receptor on MDA-MB-231 cells (UniProt P30530); experiment: FACS on MDA-MB-231 cells against AXL KO MDA-MB-231 cells
[3] = biological target: AXL receptor on MDA-MB-231 cells (UniProt P30530); experiment: titration 1:4 from 500 nM on MDA-MB-231 and MDA-MB-231 KO cell lines

Binder | binding [2] | binding [3] | further results
B1 | – | – | binding [1]: binds
B2 | binds | – | –
B3 | binds | – | –
B4 | binds | – | –
B5 | binds | – | –
B6 | – | binds | –
B7 | – | binds | –
B8 | – | binds | –
